One may read the AC50 as the concentration at which the activity in the assay is half-maximal. High values mean activity only at high concentration, low ones activity at low concentration.

Some of the results follow. Further columns of the screen follow, without active or inactive calls. Compounds called inactive in the main read-out are mostly missing here. The note in brackets gives the kind of curve behind each potency; many fits are weak.

The nature of the assay: qHTS Assay for Lipid Storage Modulators in Drosophila S3 Cells.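 For cell number change: cells counted by Cell Tracker Red CMTPX staining in the red channel.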 The note with it: BODIPY lipid droplet fluorescence, 18-24 h; for cell number change: measured here: cell count max response, cells fed with added oleic acid. The method in brief: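 Drosophila S3 cells got compounds at several concentrations plus oleic acid (400 uM solution). Laser-scanning cytometry with 488 nm excitation read lipid droplets at 500-530 nm and cells at 575-640 nm. Percent activity was relative to 20 uM Triacsin C.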
A general note: Quantitative high-throughput screening tests each substance at several concentrations.

Setting [1] is: measured here: lipid fluorescence (Fed channel) AC50, cells fed with added oleic acid.
The mark [2] stands for this setting: measured here: cell number channel AC50, cells fed with added oleic acid.

For `CCC(C)NS(=O)(=O)c1ccc(OCC(=O)NCc2cccnc2)cc1` (configuration not stated), the cell number change is 28.5%. Besides, the AC50 under setting [1] was 82 nM [rising, full curve, poor fit].

For `Cc1cc(N=Cc2c(O)ccc3cc(Br)ccc23)no1`, the cell number change is -48.4%. Also, the AC50 under setting [2] was 2060 nM [falling, partial curve]. For the same molecule, under setting [1], the AC50 was 2060 nM [falling, partial curve].

Take `O=C(NCCOc1ccc(Cl)cc1)c1ccco1`: the cell number change was determined as 17.1%.

As to `Cc1ccc(C)c(Cn2nnc3c(=O)[nH]c(C4CCCN(C(=O)c5ccco5)C4)nc32)c1` (configuration not stated), the cell number change was -5.13%. Moreover, under setting [1], the AC50 is 29100 nM [rising, single point].

Take `COC(=O)[C@@H](NC(=O)NC(C)CCc1ccccc1)C(C)C` (some centres not stated): the cell number change worked out at 11.9%.

For `CC(=O)Nc1ccc(S(=O)(=O)N2CCC(C(N)=O)(N3CCCCC3)CC2)cc1`, the cell number change is 11.3%.

On to `CC(/C=C/c1ccc2c(c1)OCO2)=N\NC(=O)COc1ccccc1C`, for which the AC50 was 58 nM [rising, full curve, poor fit] under setting [2] and 36.6 nM [rising, partial curve, poor fit] under setting [1].

Turning to `O=C(c1ccccc1)N1CCN(C2C3CC4CC(C3)CC2C4)CC1` (configuration not stated), the cell number change was found to be 2.08%. In addition, the AC50 under setting [2] was 461 nM [falling, single point]. Under setting [1], the concentration at half-maximal activity (AC50) is 16400 nM [falling, partial curve].

Consider `CC(=O)Nc1ccc(S(=O)(=O)N2CCN(c3cccc(C)c3C)CC2)cc1`, for which the cell number change amounted to 21.6%. Moreover, the AC50 under setting [2] was 2310 nM [rising, full curve, poor fit]. For the same molecule, the AC50 under setting [1] is 259 nM [rising, partial curve, poor fit].

In the case of `OC(CN1CCN(c2ccccn2)CC1)Cn1c2ccc(Cl)cc2c2cc(Cl)ccc21` (configuration not stated), the cell number change is -60.3%. Also, the half-maximal activity concentration (AC50) under setting [2] is 23100 nM [falling, single point]. The AC50 under setting [1] is 29100 nM [falling, single point].

For `Cc1cc2ncc(C(=O)Nc3ccsc3C(=O)O)c(C)n2n1`, the cell number change was 20.6%. Besides, the AC50 under setting [2] was 6510 nM [falling, single point]. Besides, under setting [1], the AC50 was 6510 nM [falling, single point].

As to `CC1CCN(c2ccc3nnc(CCC(=O)N4CCN(c5ccccc5F)CC4)n3n2)CC1`, the cell number change was -21.5%. Moreover, the AC50 under setting [1] was 29100 nM [falling, single point].

Take `CS(=O)(=O)c1ccc(Cl)c(NC(=O)COc2ccc3c(c2)CCC3)c1`: the AC50 under setting [1] was 580 nM [rising, single point].

For `COc1ccc(-c2noc(=O)n2Cc2ccc(C#N)cc2)cc1`, the cell number change was 8.42%.

For the molecule `COc1ccc2oc(C(=O)OCC(=O)N(CC(C)C)c3c(N)n(Cc4ccccc4)c(=O)[nH]c3=O)c(C)c2c1`, the AC50 under setting [2] was 5170 nM [rising, single point].

`O=c1sc(N2CCN(c3ccccc3F)CC2)nc2ccsc12`: the AC50 is, setting by setting: under setting [2], 517 nM [rising, full curve, poor fit]; under setting [1], 651 nM [rising, full curve].

As to `CC(C)c1ccc(OCC(=O)Nc2ccccc2C(=O)N2CCOCC2)cc1`, the cell number change came to 10.7%.

Consider `CN(c1ccccc1)S(=O)(=O)c1ccc(NC(=O)c2cccs2)cc1`, for which, under setting [1], the AC50 was 35500 nM [rising, single point].

In the case of `O=C(CNC1CCCC1)Nc1cc(Cl)ccc1[N+](=O)[O-]`, the cell number change was -0.816%. Besides, the AC50 under setting [1] is 820 nM [falling, full curve].

As to `CC1CCCCC1NC(=O)COC(=O)c1ccc2c(c1Cl)C(=O)c1ccccc1C2=O` (configuration not stated), the cell number change was -3.42%. Also, the AC50 under setting [1] was 130 nM [rising, full curve].

Regarding `Cc1cc(NCc2ccccc2)c2ccccc2n1`, the cell number change was -18.1%. Also, the AC50 under setting [1] was 29100 nM [rising, single point].

Consider `COc1ccccc1C(=O)Nc1cccc(C(=O)c2ccccc2)c1`, for which the cell number change was -36.5%. In addition, under setting [2], the AC50 was 11600 nM [falling, single point].

`CCOc1ccc(S(=O)(=O)Nc2cccc(C(=O)NCC3(N4CCCCC4)CCCCC3)c2)cc1`: the cell number change came out at 35%. Also, under setting [2], the AC50 is 11600 nM [rising, single point].

For `COc1ccc(C2NC(c3ccc(OC)cc3OC)C(C)C(=O)C2C)c(OC)c1` (configuration not stated), the cell number change is 51%. Also, the AC50 under setting [2] is 10300 nM [rising, partial curve, poor fit].

`COC(=O)CN1C(=S)N(c2ccc(Cl)cc2)C(=O)C1CC(=O)Nc1ccc(Cl)cc1` (configuration not stated): the cell number change is -41.6%. For the same molecule, the AC50 under setting [2] is 29100 nM [falling, single point]. Also, the half-maximal activity concentration (AC50) under setting [1] was 25900 nM [falling, single point].

On to `O=C(NNC(=O)c1ccccc1F)c1ccc(-n2cncn2)c([N+](=O)[O-])c1`, for which the cell number change amounted to 11.8%. The AC50 under setting [1] was 651 nM [falling, single point].

Take `Cc1ccc(NC2CCCN(C(=O)c3cccc(-c4ncc[nH]4)c3)C2)cc1C` (configuration not stated): the cell number change was -4.01%.

As to `C/C(=N\NC(N)=S)c1cc(-c2ccccc2)c(-c2ccccc2)s1`, the cell number change was -12.6%. Under setting [1], the AC50 was 7310 nM [falling, partial curve].

`CCOC(=O)C1CCN(C(=O)Nc2ccc3oc(C)nc3c2)CC1`: the cell number change was found to be 0.647%. Besides, the AC50 under setting [1] was 1300 nM [falling, full curve].

For `CCC1CCc2sc(C(=O)NCC3CCCO3)cc2C1` (configuration not stated), the cell number change is -10.4%. In addition, under setting [1], the half-maximal activity concentration (AC50) is 164 nM [falling, partial curve, poor fit].

Regarding `CC(=O)N1CCN(c2ccc(NCc3ccc(F)cc3)cc2)CC1`, the AC50 under setting [1] was 184 nM [rising, full curve, poor fit].

Consider `CSc1cccc(NC(=S)N2CCCN(Cc3ccc(F)cc3)C2)c1`, for which the cell number change stood at 35%. The half-maximal activity concentration (AC50) under setting [2] was 326 nM [rising, partial curve, poor fit].

With `O=C(Cn1nc(C(=O)O)c2ccccc2c1=O)Nc1ccc(F)cc1F`, the cell number change was -29.5%. Moreover, under setting [1], the AC50 was 29100 nM [falling, single point].

Take `COc1ccc(/C=N/Nc2ncnc3sc(C)c(C)c23)cc1`: the cell number change is 11.5%. Under setting [1], the AC50 is 10300 nM [rising, partial curve].

Turning to `CCCc1nnc(SCC(=O)Nc2ccc(OCC)cc2)n1N`, the cell number change was 2.29%. Moreover, the AC50 under setting [1] is 4110 nM [rising, single point].

Consider `Cc1ccc(/C=C(\C#N)C(=O)Nc2c(C)cccc2C)s1`, for which the cell number change is 75.4%. The AC50 under setting [2] was 146 nM [rising, full curve, poor fit]. The AC50 under setting [1] was 73.1 nM [rising, full curve, poor fit].

Regarding `COc1ccccc1NS(=O)(=O)c1ccc(C(=O)NCc2ccncc2)cc1`, the cell number change is -7.06%. Moreover, the AC50 under setting [2] is 731 nM [falling, full curve, poor fit]. Also, the AC50 under setting [1] was 3660 nM [falling, full curve].

Values taken from PubChem BioAssay AID2685 (National Center for Advancing Translational Sciences (NCATS), 2010).
